Experimental data: patent publication US20260250769

Target: DUX4-fl (Homo sapiens) (UniProt Q9UBX2)
Assay: activity in cells
Conditions: RD cells, protein in cells, protein details: pCS2 or lentiviral expression
[1] = luciferase, pGL3-promoter, transcription activated, only the site is given

Row | Sequence | activity on this sequence (1.9 kb ZSCAN4 enhancer/promoter containing these sites, pGL3-basic) | activity on this sequence [1]
1 | AGTAATTCAATCAACAGACAAGTGTTATCCAATCACGTCTTTAAATCAATCACTGACATGGAGCTGGGGCTGGATGAAGATTCCATCAGTAATTCAATCAACAGACAAGTGTTATCCAATCACGTCTTTAAATCAATCACT (double strand) [ZSCAN4 enhancer DUX4 sites] | active | 
2 | AATCACGTCTTTAAATCAATCACTGACATGG (double strand) [ZSCAN4 reporter site] |  | active
3 | AGGAGTGATGATAATTTAATCAGCCGTGCAA (double strand) [TRIM48 reporter site] |  | active
